# Source: patent publication US20090061481
# Protein sequences can lack the tags named with them.
# Legend:
# [1] = molecular target: T1, Pfu DNA ligase variant Dala (D540A/Q547A/K554A/K558A) (Pyrococcus furiosus) (UniProt P56709); assay: activity assay; conditions: 5'-phosphate on 30mer; ligation efficiency higher than wild type at 30 C and 80 C; purified recombinant protein; label: 5'-TET on 20mer
# T1 sequence (limits assumed): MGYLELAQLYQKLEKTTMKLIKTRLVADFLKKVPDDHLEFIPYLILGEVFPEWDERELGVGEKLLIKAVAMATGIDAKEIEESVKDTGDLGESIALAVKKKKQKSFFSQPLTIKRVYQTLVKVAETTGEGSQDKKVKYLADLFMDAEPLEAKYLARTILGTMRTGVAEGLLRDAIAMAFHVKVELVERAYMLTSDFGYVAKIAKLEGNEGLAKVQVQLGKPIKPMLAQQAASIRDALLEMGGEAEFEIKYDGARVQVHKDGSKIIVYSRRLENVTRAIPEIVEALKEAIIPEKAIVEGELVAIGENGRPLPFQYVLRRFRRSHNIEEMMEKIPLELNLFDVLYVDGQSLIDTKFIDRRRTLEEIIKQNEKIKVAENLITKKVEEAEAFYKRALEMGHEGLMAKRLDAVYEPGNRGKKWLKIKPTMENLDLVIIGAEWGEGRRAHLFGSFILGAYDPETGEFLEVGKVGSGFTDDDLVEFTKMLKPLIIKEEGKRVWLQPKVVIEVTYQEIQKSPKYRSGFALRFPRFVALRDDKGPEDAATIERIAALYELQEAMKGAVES
# [2] = molecular target: T2, Pfu DNA ligase variant DΔ12 (D540A/Q547A, C-terminal 12 residues deleted) (Pyrococcus furiosus) (UniProt P56709); assay: activity assay; conditions: 5'-phosphate on 30mer; ligation efficiency higher than wild type at 20 C, 30 C and 80 C; purified recombinant protein; label: 5'-TET on 20mer
# T2 sequence: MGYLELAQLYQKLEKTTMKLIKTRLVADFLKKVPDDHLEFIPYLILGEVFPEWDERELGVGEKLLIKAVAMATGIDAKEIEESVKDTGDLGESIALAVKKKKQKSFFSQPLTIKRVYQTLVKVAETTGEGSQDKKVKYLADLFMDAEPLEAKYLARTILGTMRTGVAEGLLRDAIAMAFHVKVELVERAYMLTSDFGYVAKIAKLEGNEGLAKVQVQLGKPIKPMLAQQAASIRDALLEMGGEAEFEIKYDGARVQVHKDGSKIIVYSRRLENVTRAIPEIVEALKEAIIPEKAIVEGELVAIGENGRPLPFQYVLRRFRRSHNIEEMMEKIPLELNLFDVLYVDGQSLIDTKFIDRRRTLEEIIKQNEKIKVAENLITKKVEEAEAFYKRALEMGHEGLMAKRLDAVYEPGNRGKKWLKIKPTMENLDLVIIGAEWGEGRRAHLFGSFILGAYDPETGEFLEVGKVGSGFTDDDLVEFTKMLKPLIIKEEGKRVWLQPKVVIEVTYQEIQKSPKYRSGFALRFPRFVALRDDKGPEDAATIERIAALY
sequence,measurement,setting,value
AAACGGGCCGGTCAACAATCCTCTGGAGTCGACCTGTAGGAATGCAAGCTTGGCGTCACG / AGGTCGACTCCAGAGGATTGTTGACCGGCC / CGCCAAGCTTGCATTCCTAC [nicked ligation substrate 60mer/30mer/20mer],activity on this sequence,[1],active
same,activity on this sequence,[2],active
